Results are given in words; binding and its absence hold for the method and conditions named. Some entries that bind do so weakly or less than the wild type. Blank lines part the entries; values can stand above or below the binder they belong to.
Target: MBP-RAMP1 ECD-(GS)5-CTR ECD-H6 fusion protein (human) (UniProt O60894+P30988)
Assay: AlphaLISA competition (FIG. 6)

Chains of the proteins cited; added tags and fusions are not shown. Lines headed by an entry give the natural chain unless they say otherwise; changes in a name come on top.
UniProt O60894: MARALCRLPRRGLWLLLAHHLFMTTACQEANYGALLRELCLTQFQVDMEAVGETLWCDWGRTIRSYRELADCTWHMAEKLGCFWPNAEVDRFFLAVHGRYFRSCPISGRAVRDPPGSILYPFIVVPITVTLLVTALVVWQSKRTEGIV
UniProt P30988: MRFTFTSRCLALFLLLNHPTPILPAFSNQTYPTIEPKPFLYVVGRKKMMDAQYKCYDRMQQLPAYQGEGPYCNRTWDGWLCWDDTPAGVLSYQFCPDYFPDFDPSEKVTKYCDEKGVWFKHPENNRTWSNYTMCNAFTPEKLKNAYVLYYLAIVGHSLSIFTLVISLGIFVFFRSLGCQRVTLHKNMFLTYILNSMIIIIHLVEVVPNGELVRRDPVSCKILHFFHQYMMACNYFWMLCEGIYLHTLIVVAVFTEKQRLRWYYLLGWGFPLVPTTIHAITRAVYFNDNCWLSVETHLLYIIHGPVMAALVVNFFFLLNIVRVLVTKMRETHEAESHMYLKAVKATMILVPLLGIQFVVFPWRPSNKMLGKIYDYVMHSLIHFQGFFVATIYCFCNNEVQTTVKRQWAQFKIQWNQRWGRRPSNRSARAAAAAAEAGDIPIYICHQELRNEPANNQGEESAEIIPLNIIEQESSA

- binding: binds
B1: AM(37-52)NH2 [S45W, K46L, Q50W, Y52F] (peptide)
peptide: DKDNVAPRWLISPWGF
modifications: C-terminal amide

- binding: binds
B2: CGRP(27-37)NH2 [N31D, S34P, K35W, A36S] (peptide)
peptide: FVPTDVGPWSF
modifications: C-terminal amide

From US20180141989A1 (BOARD OF REGENTS OF THE UNIVERSITY OF OKLAHOMA, published 2018)
